These are yes or no findings as the source states them, for the method shown. In cells and extracts the contact can be indirect. Some entries that bind do so weakly or less than the wild type.
Experiments:
[1] = molecular target: Yes-associated protein (YAP) (human (endogenous in CR primary OCPM cells)) (UniProt P46937); experiment: co-IP; co-immunoprecipitation kit, antibody covalently coupled to amine-reactive resin (YAP antibody beads are listed in the methods); lysate of CR primary cells; endogenous proteins
[2] = molecular target: wt-YAP-FLAG (UniProt P46937); experiment: co-IP; stable cells expressing wt-YAP-FLAG or mut-YAP-FLAG (cell type and precipitating antibody not told for this experiment); co-immunoprecipitation kit

Sequences of proteins named here, by UniProt entry; tags and fusion partners are left off.
UniProt P46937: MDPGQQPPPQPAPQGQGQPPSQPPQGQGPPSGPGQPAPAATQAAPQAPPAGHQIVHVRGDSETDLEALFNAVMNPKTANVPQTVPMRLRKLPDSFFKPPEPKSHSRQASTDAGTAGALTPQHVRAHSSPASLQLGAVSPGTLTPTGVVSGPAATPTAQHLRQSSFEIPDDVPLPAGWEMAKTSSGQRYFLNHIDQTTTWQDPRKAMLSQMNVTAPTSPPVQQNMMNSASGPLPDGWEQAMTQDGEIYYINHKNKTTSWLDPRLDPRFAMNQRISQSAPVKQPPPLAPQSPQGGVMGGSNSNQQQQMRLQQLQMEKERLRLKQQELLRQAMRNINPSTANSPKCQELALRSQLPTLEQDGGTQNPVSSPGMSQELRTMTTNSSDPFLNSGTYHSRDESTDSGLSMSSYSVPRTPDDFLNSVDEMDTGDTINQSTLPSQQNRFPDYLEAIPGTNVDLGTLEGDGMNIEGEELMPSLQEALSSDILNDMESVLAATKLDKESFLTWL
UniProt P31946: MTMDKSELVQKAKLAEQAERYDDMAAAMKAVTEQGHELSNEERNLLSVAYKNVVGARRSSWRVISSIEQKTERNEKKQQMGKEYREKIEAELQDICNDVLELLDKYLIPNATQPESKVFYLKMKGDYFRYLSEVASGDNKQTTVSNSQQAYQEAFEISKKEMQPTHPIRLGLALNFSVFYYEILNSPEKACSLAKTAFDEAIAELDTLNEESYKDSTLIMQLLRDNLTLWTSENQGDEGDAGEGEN

YWHAB (14-3-3 beta/alpha) (from UniProt P31946 1-246)
binding [1]: binds
binding [2]: binds

From publication PMC12221726
